Measured values as given in PMC10746112, “Synthesis and Pro-Apoptotic Effects of Nitrovinylanthracenes and Related Compounds in Chronic Lymphocytic Leukaemia (CLL) and Burkitt’s Lymphoma (BL)” (Molecules, 2023).

How the values were obtained:
[1] = test system: MDA-MB-231 human breast cancer cells; assay: alamarBlue cell viability assay; assay type: cell-based; settings: eight concentrations 0.001–50 μM
[2] = test system: MCF-7 human breast cancer cells; assay: alamarBlue cell viability assay; settings: MCF7, read-out: MCF-7 IC50
[3] = test system: MUTU-I Burkitt’s lymphoma cell line; settings: read-out: IC50 MUTU-I; previous work; cited from earlier work
[4] = test system: DG-75 Burkitt’s lymphoma cell line; settings: read-out: IC50 DG-75; previous work; cited from earlier work

CC/C(=C(\c1ccccc1)c1ccc(OCCN(C)C)cc1)c1ccccc1 [Tamoxifen, tamoxifen, reference compound]
IC50 [1]: 20 µM
IC50 [2]: 4.12 µM

CNCCCC12CCC(c3ccccc31)c1ccccc12 [Maprotiline, maprotiline, reference compound]
IC50 [3]: 15.8 µM
IC50 [4]: 37.5 µM
